The assay in a line: qHTS Assay for Modulators of Lamin A Splicing. The note with it: HeLa LMNA splicing GFP/RFP minigene ratio, 48 h. In outline: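 Read-out is the ratio of GFP to DsRed2 object intensity, acquired by 488 nm laser-scanning cytometry on HeLa lamin A-EGFP minigene reporter cells. Compound incubation 48 hrs at 37 °C in Opti-MEM with 2% FBS; DMSO 0.5% final.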
(In qHTS, concentration-response curves come from the screen itself.)

The mark [1] stands for this setting: measured here: RFP viability control channel.
Where [2] appears, read: measured here: GFP splicing reporter channel.

Molecules are shown by their SMILES. The list shows a part of the results. Shown are side measurements of this screen, not its main read-out; they come without a call. Compounds called inactive in the main read-out are mostly missing here. Words in brackets tell the shape of the fitted curve; partial curves, single points and poor fits give uncertain potencies.

The record followed here is PubChem BioAssay AID1487 (National Center for Advancing Translational Sciences (NCATS), 2009).

As to `Cc1ccc2onc(CC(=O)N3CCN(c4ccc(Cl)cc4)CC3)c2c1`, under setting [1], the AC50 (as a rule, the concentration at which the activity in the assay is half-maximal) was 17.8 µM [rising, single point].

Consider `COc1ccc(-c2[nH]ncc2CN(C)C(C)c2ccon2)c(OC)c1` (configuration not stated), for which, under setting [1], the AC50 was 0.0447 µM [falling, full curve, poor fit].

As to `O=C(O)c1ccc(N/N=C/C=C/c2ccccc2[N+](=O)[O-])cc1`, the AC50 under setting [1] was 8.91 µM [falling, partial curve].

For `CCOc1ccc(N2C(=O)CC(Sc3nnnn3-c3ccccc3)C2=O)cc1` (configuration not stated), the AC50 under setting [1] is 22.4 µM [falling, single point]. Take `CCN1C(=O)C=CC1=O`: the AC50 was 5.01 µM [falling, full curve, poor fit] under setting [2] and 6.31 µM [falling, single point] under setting [1]. In the case of `CC(=O)CCc1oc2ccc(C)cc2c1-c1ccc(C)o1`, the AC50 under setting [2] is 12.6 µM [falling, partial curve, poor fit].

For the molecule `CC(=O)CC(=O)[C@@]1(O)CC[C@@H]2[C@@H]3C=C(C)C4=CC(=O)CC[C@@H]4[C@H]3CC[C@]21C`, the half-maximal activity concentration (AC50) runs as follows: under setting [2], 1.12 µM [falling, single point]; under setting [1], 2.24 µM [falling, single point]. In the case of `CC(C)COc1ccc(-c2nnc(-c3ccncc3)o2)cc1`, the AC50 under setting [1] is 11.2 µM [rising, single point]. For the molecule `O=c1[nH]c(-c2ccc3c(c2)OCO3)nc2c1sc(=S)n2-c1ccccc1`, the AC50 under setting [1] was 0.0355 µM [falling, full curve, poor fit]. As to `O=C(COC(=O)c1ccccc1Br)Nc1cc(S(=O)(=O)N2CCOCC2)ccc1N1CCCC1`, under setting [2], the AC50 was 0.0501 µM [falling, full curve, poor fit]. With `C=C(C)COc1ccc(-c2nc(N)ncc2Oc2ccc(OC)cc2)c(O)c1`, the AC50 under setting [2] was 35.5 µM [falling, single point] and the AC50 under setting [1] is 35.5 µM [falling, partial curve]. As to `COc1cc(SC)ccc1C(=O)N1CCN(c2ccccc2OC)CC1`, the AC50 under setting [2] is 5.01 µM [falling, full curve, poor fit].

As for `CC(C)Cn1c(=O)c(C(=O)Nc2ccccc2S(N)(=O)=O)c(O)c2ccccc21`, the half-maximal activity concentration (AC50) under setting [1] is 17.8 µM [rising, single point].

With `Cc1ccc(C(=O)NC2CCN(CC(=O)NCc3cccs3)CC2)cc1`, the AC50 under setting [1] was 0.00447 µM [falling, full curve]. Take `Cc1ccc(S(=O)(=O)N2CCCC(c3nc(-c4ccc(C)o4)no3)C2)cc1` (configuration not stated): the AC50 under setting [1] was 31.6 µM [rising, single point]. In the case of `Cc1cc(C)c(C#N)c(SCC2COc3ccccc3O2)n1` (configuration not stated), the AC50 is 12.6 µM [rising, partial curve] under setting [2] and 12.6 µM [rising, partial curve] under setting [1]. In the case of `CCOc1ccc(NC(=O)C2CCCN(c3nn4cc(-c5ccc(OC)cc5)nc4s3)C2)cc1` (configuration not stated), under setting [1], the AC50 was 0.02 µM [rising, full curve, poor fit].

Turning to `Cc1c(C(=O)Nc2ccc3oc(-c4cccnc4)nc3c2)oc2ccccc12`, the AC50 under setting [1] is 15.8 µM [falling, single point].

On to `Cc1cc2nc(SCC(=O)Nc3ccccc3C(=O)O)[nH]c2cc1C`, for which, under setting [1], the AC50 is 0.158 µM [rising, full curve]. For the molecule `Cc1ncoc1C(=O)N1CCCC(C(=O)c2ccc(-c3ccccc3)c(F)c2)C1` (configuration not stated), the AC50 under setting [1] was 4.47 µM [falling, full curve, poor fit]. For the molecule `CN1CCN(C(=O)c2ccc(CSc3ccc(Cl)cc3)cc2)CC1`, under setting [1], the AC50 is 35.5 µM [rising, single point]. Turning to `CCCCCCN(C(=O)CCCCCN1C(=O)NC(c2ccc(-c3ccccc3)cc2)C(C(=O)OCc2ccccc2)=C1C)C(C(=O)NCCCC)c1ccc(OCC(=O)OC)cc1` (configuration not stated), the AC50 under setting [1] is 0.126 µM [rising, partial curve, poor fit]. Same read-out and setting: the value for `CCn1ncc(/C=N\NC(=O)c2cc(-c3ccc(C)cc3C)nc3ccccc23)c1C` was 25.1 µM [rising, single point]; that for `Cn1c(CN2CCOCC2)nc2cc(NC(=O)c3ccc(Cl)cc3)ccc21` was 2.51 µM [rising, full curve]. Take `CCN(CC)S(=O)(=O)c1cc(NS(=O)(=O)c2c(Cl)cccc2Cl)ccc1C`: the half-maximal activity concentration (AC50) under setting [1] was 35.5 µM [rising, single point]. Still for that read-out and setting: the value for `O=C(NCC1(c2ccccc2)CCCC1)c1ccco1` was 11.2 µM [falling, partial curve, poor fit]; that for `O=C(NNc1cc(N2CCCC2)nc(N2CCCC2)n1)c1ccc([N+](=O)[O-])cc1` was 0.0282 µM [falling, full curve, poor fit]. For the molecule `O=C(Nc1nnc(-c2cccs2)o1)c1cc(-c2ccccc2)nc2ccccc12`, the AC50 under setting [1] was 4.47 µM [rising, full curve].

On to `COc1ccccc1NC(=O)C(C)Sc1nnnn1C` (configuration not stated), for which the AC50 under setting [2] was 0.891 µM [rising, full curve, poor fit]. On to `Cc1nonc1CN(C)C(=O)CC1C(=O)NCCN1Cc1cccc(C(F)(F)F)c1` (configuration not stated), for which, under setting [2], the AC50 is 0.0224 µM [rising, full curve, poor fit]. On to `Fc1ccccc1N1CCN(c2ncnc3c2nc2n3CCCCC2)CC1`, for which the AC50 under setting [2] was 12.6 µM [falling, partial curve, poor fit].

Regarding `N#Cc1c(NCCCO)nc(-c2ccccc2)c2c1CCCC2`, the AC50 under setting [1] was 20 µM [rising, partial curve, poor fit]. With `CC1=C(C(=O)OC2CCCCCC2)C(c2ccc(C)o2)C2=C(CCCC2=O)N1` (configuration not stated), under setting [1], the AC50 is 35.5 µM [rising, single point]. For the molecule `O=C(NNC(=O)c1cc(-c2ccccc2)nn1-c1ccccc1)c1ccccc1`, the AC50 under setting [1] is 15.8 µM [rising, single point]. Turning to `COC(=O)N/N=C/c1cc(C)n(-c2cccc3ccccc23)c1C`, under setting [2], the AC50 is 11.2 µM [rising, single point]. `Cc1ccc(CNC(=O)CCS(=O)(=O)c2cc3c(cc2Cl)NC(=O)CO3)cc1`: the AC50 under setting [2] was 11.2 µM [falling, single point]. For `CCOC(=O)c1[nH]c(C)c(/C(O)=C2\C(=O)C(=O)N(CCN(C)C)C2c2ccc(C)o2)c1C` (configuration not stated), the AC50 under setting [1] is 12.6 µM [rising, partial curve, poor fit]. Turning to `CC(CCc1ccccc1)NC(=O)c1nnc(Cc2ccc(F)cc2)o1` (configuration not stated), the AC50 under setting [2] is 0.158 µM [falling, full curve, poor fit].
